These are yes or no findings as the source states them, for the method shown.
Experiments:
[1] = target: short GA DPRs fragment photoreleased from ADP-3 [cysteine-(glycine-alanine)3] (human); assay: transmission electron microscopy + turbidity; irradiated and unirradiated ADP-3, up to 96 h of incubation; both purified
[2] = target: short GA DPRs fragment photoreleased from ADP-3 [cysteine-(glycine-alanine)3] (human); assay: slot blot with the amyloid-oligomer-specific antibody A11; total lysates (RIPA, 50 ug protein) of SH-SY5Y cells treated with ADP-1 or ADP-3, with or without photoinitiation, over time; A11 signal normalised to GAPDH
[3] = target: ADP-3, unirradiated [cysteine-(glycine-alanine)3-photolinker-lysine8] (human); assay: transmission electron microscopy + turbidity; irradiated and unirradiated ADP-3, up to 96 h of incubation; both purified
[4] = target: Alexa Fluor 488-labelled short GA DPRs fragment photoreleased from ADP-4 [Alexa Fluor 488-cysteine-(glycine-alanine)3] (human); assay: fluorescence lifetime imaging microscopy (self-quenching); photoinitiated probe in solution (ADP-2 5 uM), 37 C, 0.5, 2 and 24 h of incubation; both purified

B1: short GA DPRs fragment photoreleased from ADP-3 [cysteine-(glycine-alanine)3] (peptide)
peptide: CGAGAGA
Q: Which results are given for B1?
A: binding [1]: no binding; binding [2]: no binding

B2: ADP-3, unirradiated [cysteine-(glycine-alanine)3-photolinker-lysine8] (peptide)
peptide: CGAGAGAKKKKKKKK
modifications: photolabile methoxynitrobenzene linker (PL) between (GA)3 and K8
Q: How did the binding [3] turn out when B2 was run?
A: Its binding is “no binding”.

B3: Alexa Fluor 488-labelled short GA DPRs fragment photoreleased from ADP-4 [Alexa Fluor 488-cysteine-(glycine-alanine)3] (peptide)
peptide: CGAGAGA
modifications: Alexa Fluor 488 on the N-terminal cysteine
Q: How did the binding [4] turn out when B3 was run?
A: Its binding is “no binding”.

Reference: paper PMC9814621, “Nanoscopic investigation of C9orf72 poly-GA oligomers on nuclear membrane disruption by a photoinducible platform” (Communications Chemistry, 2021)
